From article PMC10681723 come the findings set out here.

By UniProt entry, the sequences of proteins in these tests, tags left out.
UniProt P32558: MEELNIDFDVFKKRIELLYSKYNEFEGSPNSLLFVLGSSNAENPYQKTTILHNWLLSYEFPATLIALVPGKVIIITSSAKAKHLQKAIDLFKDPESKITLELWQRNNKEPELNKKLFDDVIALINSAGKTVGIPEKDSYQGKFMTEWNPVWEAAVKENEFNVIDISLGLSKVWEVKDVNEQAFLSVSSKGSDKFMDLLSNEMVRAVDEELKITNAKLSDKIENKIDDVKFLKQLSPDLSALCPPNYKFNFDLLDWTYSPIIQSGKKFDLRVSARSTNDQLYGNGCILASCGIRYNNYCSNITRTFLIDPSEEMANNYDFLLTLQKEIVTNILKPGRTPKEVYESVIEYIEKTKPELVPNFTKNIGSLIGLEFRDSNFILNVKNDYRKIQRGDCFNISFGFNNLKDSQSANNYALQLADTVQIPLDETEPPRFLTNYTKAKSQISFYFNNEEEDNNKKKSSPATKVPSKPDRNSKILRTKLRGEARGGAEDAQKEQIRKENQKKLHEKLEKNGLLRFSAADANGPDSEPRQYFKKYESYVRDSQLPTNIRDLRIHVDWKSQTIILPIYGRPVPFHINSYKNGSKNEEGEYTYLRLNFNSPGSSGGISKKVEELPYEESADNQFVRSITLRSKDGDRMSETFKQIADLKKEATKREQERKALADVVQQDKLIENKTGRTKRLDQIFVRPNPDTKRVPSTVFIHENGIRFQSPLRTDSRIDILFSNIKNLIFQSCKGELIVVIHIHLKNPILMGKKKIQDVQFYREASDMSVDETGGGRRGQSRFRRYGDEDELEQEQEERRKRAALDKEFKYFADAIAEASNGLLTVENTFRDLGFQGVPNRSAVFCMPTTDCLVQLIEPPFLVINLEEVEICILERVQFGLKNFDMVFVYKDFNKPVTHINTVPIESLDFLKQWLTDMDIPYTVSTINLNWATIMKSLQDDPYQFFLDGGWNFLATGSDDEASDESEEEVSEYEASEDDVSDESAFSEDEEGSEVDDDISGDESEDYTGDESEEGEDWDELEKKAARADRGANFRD
UniProt P29469: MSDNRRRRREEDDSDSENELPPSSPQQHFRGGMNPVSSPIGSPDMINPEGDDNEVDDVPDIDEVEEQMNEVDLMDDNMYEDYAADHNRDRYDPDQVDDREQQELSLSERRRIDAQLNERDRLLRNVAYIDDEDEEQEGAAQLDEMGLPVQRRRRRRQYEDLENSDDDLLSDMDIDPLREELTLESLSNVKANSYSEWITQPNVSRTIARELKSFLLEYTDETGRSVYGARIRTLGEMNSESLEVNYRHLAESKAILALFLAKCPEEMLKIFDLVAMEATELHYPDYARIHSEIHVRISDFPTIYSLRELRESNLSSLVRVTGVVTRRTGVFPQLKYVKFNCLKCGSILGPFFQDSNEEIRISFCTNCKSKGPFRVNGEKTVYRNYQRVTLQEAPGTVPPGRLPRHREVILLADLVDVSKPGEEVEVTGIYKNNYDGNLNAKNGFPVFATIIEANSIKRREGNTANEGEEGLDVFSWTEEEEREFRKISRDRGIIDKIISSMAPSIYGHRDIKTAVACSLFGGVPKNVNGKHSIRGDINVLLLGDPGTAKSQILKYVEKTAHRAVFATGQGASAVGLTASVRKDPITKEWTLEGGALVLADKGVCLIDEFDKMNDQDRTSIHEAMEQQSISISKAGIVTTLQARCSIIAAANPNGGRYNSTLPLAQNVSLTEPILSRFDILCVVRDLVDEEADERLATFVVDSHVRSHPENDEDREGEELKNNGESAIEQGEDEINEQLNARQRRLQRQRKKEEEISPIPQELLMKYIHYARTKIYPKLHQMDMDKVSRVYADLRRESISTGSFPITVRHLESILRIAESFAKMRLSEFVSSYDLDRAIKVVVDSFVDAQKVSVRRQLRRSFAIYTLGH
UniProt P53091: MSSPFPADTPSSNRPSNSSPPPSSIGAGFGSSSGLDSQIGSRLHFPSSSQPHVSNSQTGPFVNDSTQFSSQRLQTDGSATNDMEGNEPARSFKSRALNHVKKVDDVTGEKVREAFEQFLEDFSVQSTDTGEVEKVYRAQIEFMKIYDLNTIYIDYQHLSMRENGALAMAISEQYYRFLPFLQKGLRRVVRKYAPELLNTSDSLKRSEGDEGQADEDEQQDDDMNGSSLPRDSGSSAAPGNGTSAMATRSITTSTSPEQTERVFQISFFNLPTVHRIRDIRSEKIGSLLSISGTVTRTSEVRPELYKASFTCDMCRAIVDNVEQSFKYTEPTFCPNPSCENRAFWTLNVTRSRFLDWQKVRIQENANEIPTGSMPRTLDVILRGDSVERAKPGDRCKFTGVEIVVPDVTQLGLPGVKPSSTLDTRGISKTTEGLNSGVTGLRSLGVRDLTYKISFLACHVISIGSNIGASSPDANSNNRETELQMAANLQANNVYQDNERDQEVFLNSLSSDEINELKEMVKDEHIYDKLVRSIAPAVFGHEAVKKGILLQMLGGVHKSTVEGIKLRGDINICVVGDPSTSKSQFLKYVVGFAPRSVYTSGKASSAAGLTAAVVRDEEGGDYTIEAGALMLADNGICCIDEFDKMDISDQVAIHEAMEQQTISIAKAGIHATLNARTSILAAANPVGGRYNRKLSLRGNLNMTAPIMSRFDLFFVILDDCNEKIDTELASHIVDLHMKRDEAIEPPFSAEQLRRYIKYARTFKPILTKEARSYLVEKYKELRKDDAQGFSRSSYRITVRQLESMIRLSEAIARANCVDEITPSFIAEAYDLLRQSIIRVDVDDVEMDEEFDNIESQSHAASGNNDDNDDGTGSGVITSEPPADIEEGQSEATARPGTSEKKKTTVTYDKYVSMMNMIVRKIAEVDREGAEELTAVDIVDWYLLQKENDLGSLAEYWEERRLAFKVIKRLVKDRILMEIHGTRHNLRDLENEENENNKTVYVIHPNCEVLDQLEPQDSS
UniProt P24279: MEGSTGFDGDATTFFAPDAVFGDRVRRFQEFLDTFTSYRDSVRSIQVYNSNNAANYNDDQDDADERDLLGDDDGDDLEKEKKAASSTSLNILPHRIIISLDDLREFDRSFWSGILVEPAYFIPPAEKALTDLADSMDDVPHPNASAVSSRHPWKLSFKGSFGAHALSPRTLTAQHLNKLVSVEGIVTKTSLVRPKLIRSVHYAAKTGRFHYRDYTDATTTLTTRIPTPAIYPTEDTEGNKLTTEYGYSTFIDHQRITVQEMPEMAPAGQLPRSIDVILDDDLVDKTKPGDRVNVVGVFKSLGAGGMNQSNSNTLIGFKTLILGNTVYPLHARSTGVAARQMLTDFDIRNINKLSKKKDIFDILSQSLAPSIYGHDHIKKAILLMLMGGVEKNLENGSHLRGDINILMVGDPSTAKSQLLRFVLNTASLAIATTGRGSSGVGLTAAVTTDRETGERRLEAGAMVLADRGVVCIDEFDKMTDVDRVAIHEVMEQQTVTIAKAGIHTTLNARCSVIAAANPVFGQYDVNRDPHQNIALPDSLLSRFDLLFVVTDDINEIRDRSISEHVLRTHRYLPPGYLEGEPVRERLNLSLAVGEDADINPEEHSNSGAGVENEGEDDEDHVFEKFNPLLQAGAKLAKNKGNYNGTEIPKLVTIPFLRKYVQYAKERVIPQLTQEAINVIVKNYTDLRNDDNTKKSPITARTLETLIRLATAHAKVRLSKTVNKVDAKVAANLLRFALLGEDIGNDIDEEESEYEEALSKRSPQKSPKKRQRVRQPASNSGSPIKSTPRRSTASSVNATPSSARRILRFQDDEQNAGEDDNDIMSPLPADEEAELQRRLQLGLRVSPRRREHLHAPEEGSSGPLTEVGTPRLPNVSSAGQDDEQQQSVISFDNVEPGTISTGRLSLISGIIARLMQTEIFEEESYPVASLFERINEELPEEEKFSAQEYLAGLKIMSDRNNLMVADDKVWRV

These are yes or no findings as the source states them, for the method shown. Binding seen in cells or lysates may run through a third protein. Here binding means that the protein was enriched with, or labelled near, the bait; the list need not be complete.

The target of this assay is TAP-tagged Spt16 (Spt16-TAP), wild type (budding yeast (S. cerevisiae)) (UniProt P32558). Briefly: affinity purification with mass spectrometry; tandem affinity purification of wild-type Spt16 or Spt16-ΔN from yeast cells, SDS-PAGE, label-free quantitative mass spectrometry, n = 3.
As to Mcm2 (from UniProt P29469 1-868), the binding result was “binds”.
As to Mcm6 (from UniProt P53091 1-1017), the binding result is listed as “binds”.
Consider Mcm3 (from UniProt P24279 1-971), for which the binding result is “binds”.
